Test results reported in PMC9908615.
No constants are given. Whether binding was seen depends on the method and setting. Binding seen in cells or lysates may run through a third protein. A yes stands for co-enrichment or nearness to the bait. Other partners may have been found.

The chains behind the UniProt entries cited, without tags or fusion partners. Where a name states a change or a piece, a line headed by the entry shows the natural chain unless it says otherwise.
UniProt Q7Z494: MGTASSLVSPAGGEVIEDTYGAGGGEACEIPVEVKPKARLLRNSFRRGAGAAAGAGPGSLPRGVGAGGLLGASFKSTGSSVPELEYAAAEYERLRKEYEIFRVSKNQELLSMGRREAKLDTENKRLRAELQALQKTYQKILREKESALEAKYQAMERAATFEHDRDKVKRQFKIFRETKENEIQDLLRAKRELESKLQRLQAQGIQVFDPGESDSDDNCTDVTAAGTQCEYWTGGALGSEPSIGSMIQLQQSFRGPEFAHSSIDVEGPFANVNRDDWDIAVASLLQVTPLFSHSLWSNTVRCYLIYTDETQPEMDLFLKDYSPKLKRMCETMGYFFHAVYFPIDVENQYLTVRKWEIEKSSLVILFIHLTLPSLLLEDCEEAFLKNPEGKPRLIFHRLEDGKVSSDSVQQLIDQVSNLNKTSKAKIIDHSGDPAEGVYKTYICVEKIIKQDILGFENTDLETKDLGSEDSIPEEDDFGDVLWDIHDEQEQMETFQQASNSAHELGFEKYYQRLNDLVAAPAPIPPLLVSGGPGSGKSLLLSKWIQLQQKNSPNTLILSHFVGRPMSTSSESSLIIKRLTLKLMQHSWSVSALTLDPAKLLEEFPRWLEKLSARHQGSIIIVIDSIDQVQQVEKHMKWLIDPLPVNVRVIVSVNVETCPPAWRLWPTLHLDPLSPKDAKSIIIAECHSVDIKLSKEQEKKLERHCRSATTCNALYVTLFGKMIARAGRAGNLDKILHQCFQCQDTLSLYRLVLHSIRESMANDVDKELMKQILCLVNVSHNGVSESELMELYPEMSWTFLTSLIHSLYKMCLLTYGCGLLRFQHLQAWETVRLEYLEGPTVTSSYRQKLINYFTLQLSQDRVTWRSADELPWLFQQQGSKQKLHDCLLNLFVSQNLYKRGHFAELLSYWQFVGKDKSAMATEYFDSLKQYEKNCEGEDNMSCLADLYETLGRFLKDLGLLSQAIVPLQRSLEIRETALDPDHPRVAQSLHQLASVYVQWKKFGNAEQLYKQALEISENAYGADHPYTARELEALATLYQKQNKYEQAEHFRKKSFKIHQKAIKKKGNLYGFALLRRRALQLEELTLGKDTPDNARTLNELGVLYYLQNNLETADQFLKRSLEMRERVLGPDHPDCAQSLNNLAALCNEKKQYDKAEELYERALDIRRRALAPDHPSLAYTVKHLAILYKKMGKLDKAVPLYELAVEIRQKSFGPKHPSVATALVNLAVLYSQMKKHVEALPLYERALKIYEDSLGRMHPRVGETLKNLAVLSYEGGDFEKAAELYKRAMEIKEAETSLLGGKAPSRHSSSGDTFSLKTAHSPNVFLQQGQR

Molecular target: NPHP3-BioID2-RAD23B (aa185-409) (human) (UniProt Q7Z494)
Assay: proximity labelling; NPHP3-BioID2-RAD23B (aa185-409) stably expressed in IMCD3 Flp-In cells, starvation medium 48 h, 10 uM biotin for the last 24 h; RIPA lysis, StrepTactin Superflow beads 3 h at 4°C, on-bead trypsin digestion, label-free MS; enrichment against the NPHP3-BioID2 control line; 6 replicates per cell line

Binder	binding
NF2 (protein, UniProt P46662 1-596) MAGAIASRMSFSSLKRKQPKTFTVRIVTMDAEMEFNCEMKWKGKDLFDLVCRTLGLRETWFFGLQYTIKDTVAWLKMDKKVLDHDVSKEEPVTFHFLAKFYPENAEEELVQEITQHLFFLQVKKQILDEKVYCPPEASVLLASYAVQAKYGDYDPSVHKRGFLAQEELLPKRVINLYQMTPEMWEERITAWYAEHRGRARDEAEMEYLKIAQDLEMYGVNYFTIRNKKGTELLLGVDALGLHIYDPENRLTPKISFPWNEIRNISYSDKEFTIKPLDKKIDVFKFNSSKLRVNKLILQLCIGNHDLFMRRRKADSLEVQQMKAQAREEKARKQMERQRLAREKQMREEAERTRDELERRLLQMKEEATMANEALMRSEETADLLAEKAQITEEEAKLLAQKAAEAEQEMQRIKATAIRTEEEKRLMEQKVLEAEVLALKMAEESERRAKEADQLKQDLQEAREAERRAKQKLLEIATKPTYPPMNPIPPPLPPDIPSFDIIADSLSFDFKDTDMKRLSMEIEKEKVEYMEKSKHLQEQLNELKTEIEALKLKERETALDVLHSESSDRGGPSSKHNTIKKLTLQSAKSRVAFFEEL	binds
CCDC14 (protein, UniProt Q8K2J4 1-934) MSPGGPRPSSRKRKLRGRDKGGPDISAVNSFFLKYSFPYAWALLRLREMVRSGSRPGQVISSGRQPGAKLPNGKKGTHVRKIAHFNVDSACPVQSDSESQTDTLQGLDGCASLLRDILKNEDSGSEMVYSENRCNSKPLEGRKNRSKKKGPEKHVPSVVRKEILSSENRKWISNEASTGSDTAQRWSLQDHYRMYSPIIYQALCEHVQTQMSLMNSLALKNGPNGIHAVCHTMSNSGSQATPHSGFGCSPSASVWPPQQPSCPLMVHSEVQTDADNQFESQSQATSVKYGDVPRDPFSVHPGVACGLPHADSPAVAKSRQLDLTSCILPQQRAPKEAELLKCFQTHTSLFPAHGKDALSDSQAYQSPSQLQPAFLATNEEKCAKEQFEEATNEGKHLSTHVQDAKIAKNVQQAENVSQTAEKIRLAKCLLGELKALMEEDSEVQRLVTEVEACVSGLSAVSGHPNVEVEIALALQPLRSENAQLRRQLRILNQRLREQEKTEKGPGNLELFSLQSLNMSLQNQLQESLKSQELLQSKNEELLKVIENQKEENKKFTTLFKDKEQTLLHNKQQFDIEMTRVKMELEEALANEKNLRFKLETAEKESQILGITLRQRDAEVARLRELTRTLQSSMAKLLSDLSMDTARCRMGNSLTKSLLNVYDQQLQQDPAPAQTSIMSYLNKLETNHSFIHSKLLNNEAAIEPDRLCESVLPPQRPPHSDAGTADGGSASGTVSAASVEDSDMDCETLTVIEDGCNVDSTVYIPFARNTSKKHSPLCKRLSPQPKLSVAAAQLVSGSAQTSKGESKPRAPAVCSSRNEAEDAPGDLSSTYDTEDVQLLRKIKEAIGKIPAAAEHAKEQATHHGPSAHPSPGVPVKGSIVPDSSFLNSDLMSDWSISSFSTFTSHDEQDFRNGLAALDANIARLQKSLKTGLLEK	binds
HAUS5 (protein, UniProt Q9D786 1-619) MELTQKERELSRWAAEEMEVPLAARPRESTLRRLCLSQGADIWAYIVQHVRSQRNIKKIQGNLLWHAYQDNPKIHRKLELEATVARLRAENQELDQSLELMDQESEAQDVAMTQTLQSLKDTQHRALLLQAQAGAVRRQQRGLQDPMQRLQNQLKHLQDMQRKAKVDVTFGPVVSAAPALEPEVLGDVRAACTLRTQFLQNLLTPRARGGSILSPCDDHVGTSYQQWLTSVETLLTNHPAGHVLAALEYLAAERESEIRSLCYGDGLKEEELSRPQAPESSNSSQVLPSTVHLIQEGWQAVGALVTQRSALLSERQVLTGRLQRLVEEVKRLLLGSSERKVLLLGLRHSGLLAELKALHAQSQELESAVGQRHLLLRELQAKRQRILQWRQLVEDRQEQIRLLIKGNSASKTRLSRGPEEVLALIDQKLVPTSEAVAPQSQELLRCLKEEAKHLPRVLLGPLLPYHVKGLKPLSRILPSIHQLHPTNPRASSLILLSHTLGLPVGKASELLLPRAASLQQDLLFLQDQLGLRRGNLCVKTSLPPGPSTQELLQMQVSQEKEQNENVGQTLKKLSNLLKQALEQIPELQGIVQDWWEQPSQAALPEEICQGLSLPQCQLR	binds
CEP85 (protein, UniProt Q8BMK0 1-761) MAMQEKYPNDRSHATSPGSNVIQKGSSLGTEWQTPVISETFRSRFSRCSSIADSGDTAIGTSCSDIAEDFCSSSGSPSFQPIKSHITIPTAHVMPSTLGASPAKPNSAPSGPSSAKLPLSGLTEGVGMTRNGDFGAVKRSPGLARDFMYLPSAAGENGSQQSWFPAVGHEREGEMRKFDVPSMESTLNQPAMLETLYSDPHYRAHFPNPRPDTNKDVYKVLPESKKAPGSGAVFERNGPHASSSGVLPLGLQPAPGLSKSLSSQVWQPSPDPWHPGEQSCELSTCRQQLELIRLQMEQMQLQNGAMCHHPAAFAPLLPTLEPAQWLSILNSNEHLLKEKELLIDKQRKHISQLEQKVRESELQVHSALLGRPAPFGDVCLLRLQELQRENTFLRAQFAQKTEALSKEKMELEKKLSASEVEIQLIRESLKVTLQKHSEEGKKQEERVKGRDKHINNLKKKCQKESEQNREKQQRIETLERYLADLPTLEDHQKQTEQLKDAELKNTELQERVAELETLLEDTQATCREKEVQLESLRQREADLSSARHSFQDKQSVEEANGENLRVDMESQQKECDSLRKMVERQQLKMEQLHSQVQSQKQELAQEEGINQALREEAQRRETALQQMRTAVKELSVQNQDLIEKNLTLQEHLRQAQPGSSSSPDSAQLACELHQELASCLQDLQAVCSIVTQRAQGHNPNLSLLLGIHSTQHPGTQLDLQKPDVIRRKLEEVQQLRHDIEDLRTSLSDRYAQDMGENCATQ	binds

The remaining lines, values ahead:

binding	Binder
binds	HAUS8 (protein, UniProt Q99L00 1-373) MADSSERDAGKSAAAGACAVPKTKGRRVQGRRVVESRYLQYDKKAKKVSGAAKEEKPPEGRKASTVPRSREESQVMGTGNLQSTMLEGHGMNPPDLDLSAIDDKILSRKASWPDREMTDKAKSTSFISCDKKRILRKKRRDLQETMDMMESQTLLMTLLSVKMENNLALLEERAEKDLAAMCHEKERLQRQALELRRQLLLRQKHQELAATLDAQIEVLSPLQPVLERFKEEYMTLGRALDTTRHELPMQAVHMEGSGQELLDDLEPALRITLQLLGDLSICSPYATAQVQGASAQEPGASTQLSCLLKELKGLVTEKDLELRRLVSQVVELSSQASKEAALMNQEVWEEAEGALTSSQWYFSPDACRDDSPS
binds	RPS6KC1 (protein, UniProt Q8BLK9 1-1056) MTSPWGHSADLARFYTVTEPQRHPRGYTVYKVTARVVSRRNPEDVQEIIVWRRYSDFKKLHRELWQIHRNAFRHSELFPPFAKGTVFGRFDKTVIEERRQCAEDLLQFSANIPALYNSRQLQDFFKGGVISDGSELIGPAEAYPDSPANAFPECGTEGFSSDSDLLSLTVDADSLAEVDDGMASRQGSPSRTFGLSLSTDSSAVGAVASDSEPSRVEDRESRSLFPSSLKPRLGRRDYLEKAGELIKLALKKEEEDDYEAASDFYRKGVDLLLEGVQGESSPTRREAVKRRTAEYLMRAESICSLRAAPQLHTGPQPPGSLSSRPPWSLRSPAEELKAFRVLGVIDKVLLVMDTRTEQTFILKGLRKSSECSRNRKTIIPRCVPNMVCLHTYIISEESVFLVLQRAEGGKLWSYISKFLNRSSQESLDIKEGRPSMPPRVCLQQPSASPQGGSSFESRGSDTGSMLKALPLKTSLTPSSQDDSNQEDDGQPSSPKWLDSGSSSEDECTAGYLTLCNEYGQEKMDLVSLSEESVMQPEGDKADTQAVSSPASLATGSVSPSTHLRVFSGGEDLEAVSSPPTSESLSRSKNSPMEFFRIDSKDSTSELLGLDFGEKLHSLKPEPLKALFTLEDGDSPSQSLDPGESKRESEAQDSVSRGSDDSVPVISFKEAAAEAISGAEEGRPDLLVNLPGELQPTKEASAMDPKFSQASAGRLDSKLLEAPDVLCLRLSSEQCHGLGPEGPEELSDPTEFCPGGVIPEHDAQADPGVLFEAAVDHRSSPDQFLFSSLRSESDRLGQVEVVVTAQALQESLFHISSPCSGANKEHSAYADTATSEEVLLFTEPTKEEANSLFQRGSEAQERGVGAGEADKEIHQIFEDLDKRLAASSRFFIPEGCIQRWAAEMVVALDALHREGIVCRDLNPNNILLNDGGHIQLTYFSRWSEVEDSCDSDAVARMYCAPEVGAVTEETEACDWWSLGAVLFELLTGKTLVECHPAGINTHTTLNMPGCVSEEARSLIQQLLQFNPMERLGAGVAGVEDIKSHPFFTPVDWAELTR
